Source: PubChem BioAssay AID743458 (Peter MacCallum Cancer Centre, 2014)
In all, the deposit lists about 1,800 reagents; this is a part drawn at random. In the full data, 732 (41%) got an active call. 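Calls are per siRNA reagent; a gene was deemed confirmed only if most of its four siRNAs scored.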 Entries without a mark were called inactive.

- Purpose: 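Identify genes whose loss lifts vorinostat resistance in colon cancer cells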 (follow-up of hits)
- Cell system: human HCT116-VR colon cancer cells made resistant to vorinostat
- Reagents: single siRNA or pool against human genes, 25 nM per single siRNA
- Duration: about 72 h after transfection, including 24 h of drug
- Challenge: vorinostat, 2.5 µM final, for 24 h
- Detection: 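Cell viability by fluorescence and apoptosis by caspase 3/7 luminescence under vorinostat, background-corrected, averaged across two plate copies and given as fold change versus mock transfection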
- Direction: viability relative to mock: higher = more living cells than mock; caspase activity relative to mock: higher = more apoptosis than mock
- Hit rule: 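An siRNA counts as active if classed as reduced viability or as caspase activation, otherwise inactive; a hit class needed wells that remained healthy in the absence of drug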

no.	target	PubChem SID	viability relative to mock	caspase activity relative to mock	viability hit class	caspase hit class
1	GOLGA1 (golgin A1)	SID134253701	1.05	2.25	no change	no change
2	GOLGA1 (golgin A1)	SID134253702	0.79 (active)	6.7	no change	caspase activation
3	GOLGA1 (golgin A1)	SID134253703	1.05	1.04	no change	no change
4	GOLGA1 (golgin A1)	SID134253704	0.66	1.77	no change	no change
5	UBE2Q1 (ubiquitin conjugating enzyme E2 Q1)	SID134243697	1.12	1.73	no change	no change
6	UBE2Q1 (ubiquitin conjugating enzyme E2 Q1)	SID134243698	1.03	1.23	no change	no change
7	UBE2Q1 (ubiquitin conjugating enzyme E2 Q1)	SID134243699	0.9	0.99	no change	no change
8	UBE2Q1 (ubiquitin conjugating enzyme E2 Q1)	SID134243700	0.83	1.62	no change	no change
9	RAB29 (RAB29, member RAS oncogene family)	SID134249945	0.72 (active)	5.16	no change	caspase activation
10	RAB29 (RAB29, member RAS oncogene family)	SID134249946	0.31 (active)	3.73	reduced viability	caspase activation
11	RAB29 (RAB29, member RAS oncogene family)	SID134249947	0.82	1.66	no change	no change
12	RAB29 (RAB29, member RAS oncogene family)	SID134249948	0.73	1.59	no change	no change
13	RARS2 (arginyl-tRNA synthetase 2, mitochondrial)	SID134261629	0.98	1.13	no change	no change
14	RARS2 (arginyl-tRNA synthetase 2, mitochondrial)	SID134261631	0.72	1.48	no change	no change
15	RARS2 (arginyl-tRNA synthetase 2, mitochondrial)	SID134261632	0.79	1.17	no change	no change
16	RARS2 (arginyl-tRNA synthetase 2, mitochondrial)	SID135614216	1	0.94	no change	no change
17	OTOS (otospiralin)	SID134271577	0.81	1.12	no change	no change
18	OTOS (otospiralin)	SID134271578	0.7 (active)	3.46	no change	caspase activation
19	OTOS (otospiralin)	SID134271579	0.9	1.6	no change	no change
20	OTOS (otospiralin)	SID134271580	0.9	1.92	no change	no change
21	PPIL2 (peptidylprolyl isomerase like 2)	SID134239017	0.95	1.1	no change	no change
22	PPIL2 (peptidylprolyl isomerase like 2)	SID134239018	0.56 (active)	0.72	reduced viability	no change
23	PPIL2 (peptidylprolyl isomerase like 2)	SID134239019	0.84	1.35	no change	no change
24	PPIL2 (peptidylprolyl isomerase like 2)	SID134239020	1.03	1.32	no change	no change
25	TBC1D2B (TBC1 domain family member 2B)	SID134262945	0.94	0.98	no change	no change
26	TBC1D2B (TBC1 domain family member 2B)	SID134262946	1.12 (active)	2.65	no change	caspase activation
27	TBC1D2B (TBC1 domain family member 2B)	SID134262947	0.84	1	no change	no change
28	TBC1D2B (TBC1 domain family member 2B)	SID134262948	0.58	2.21	no change	no change
29	CABP5 (calcium binding protein 5)	SID134259593	0.74	1.94	no change	no change
30	CABP5 (calcium binding protein 5)	SID134259594	0.78	1.66	no change	no change
31	CABP5 (calcium binding protein 5)	SID134259595	0.53 (active)	4.02	reduced viability	caspase activation
32	CABP5 (calcium binding protein 5)	SID134259596	0.53 (active)	3.68	reduced viability	caspase activation
33	UTP3 (UTP3 small subunit processome component)	SID134288109	0.72	2.06	no change	no change
34	UTP3 (UTP3 small subunit processome component)	SID134288110	0.61	2.26	no change	no change
35	UTP3 (UTP3 small subunit processome component)	SID134288111	0.6 (active)	3.21	no change	caspase activation
36	UTP3 (UTP3 small subunit processome component)	SID134288112	0.2 (active)	2.17	reduced viability	no change
37	AKAP10 (A-kinase anchoring protein 10)	SID134274690	0.73	1.24	no change	no change
38	AKAP10 (A-kinase anchoring protein 10)	SID134274691	0.92	1.34	no change	no change
39	AKAP10 (A-kinase anchoring protein 10)	SID134274692	0.85	1.4	no change	no change
40	AKAP10 (A-kinase anchoring protein 10)	SID135615212	0.12 (active)	2.24	reduced viability	no change
41	THOC5 (THO complex subunit 5)	SID134267181	0.74 (active)	4.02	no change	caspase activation
42	THOC5 (THO complex subunit 5)	SID134267182	0.82 (active)	4.15	no change	caspase activation
43	THOC5 (THO complex subunit 5)	SID134267183	0.9 (active)	2.92	no change	caspase activation
44	THOC5 (THO complex subunit 5)	SID134267184	0.71 (active)	2.97	no change	caspase activation
45	PNKP (polynucleotide kinase 3'-phosphatase)	SID56477831	0.34 (active)	1.6	reduced viability	no change
46	PNKP (polynucleotide kinase 3'-phosphatase)	SID56477832	0.68	0.99	no change	no change
47	PNKP (polynucleotide kinase 3'-phosphatase)	SID56477833	0.61 (active)	3.45	no change	caspase activation
48	PNKP (polynucleotide kinase 3'-phosphatase)	SID56477834	1.02	1.06	no change	no change

Laid out differently: 4 of the entries above
target	PubChem SID	viability relative to mock	caspase activity relative to mock	viability hit class	caspase hit class
UBE2Q1 (ubiquitin conjugating enzyme E2 Q1)	SID134243698	1.03	1.23	no change	no change
UBE2Q1 (ubiquitin conjugating enzyme E2 Q1)	SID134243699	0.9	0.99	no change	no change
UBE2Q1 (ubiquitin conjugating enzyme E2 Q1)	SID134243700	0.83	1.62	no change	no change
RAB29 (RAB29, member RAS oncogene family)	SID134249945	0.72 (active)	5.16	no change	caspase activation

More entries:
no.	target	PubChem SID	viability relative to mock	caspase activity relative to mock	viability hit class	caspase hit class
49	PDE6G (phosphodiesterase 6G)	SID134240513	1.04	1.77	no change	no change
50	PDE6G (phosphodiesterase 6G)	SID134240514	0.91	2.07	no change	no change
51	PDE6G (phosphodiesterase 6G)	SID134240515	0.46 (active)	1.04	reduced viability	no change
52	PDE6G (phosphodiesterase 6G)	SID134240516	0.73 (active)	3.86	no change	caspase activation
53	TVP23C (trans-golgi network vesicle protein 23 homolog C)	SID134270851	1.02 (active)	2.95	no change	caspase activation
54	TVP23C (trans-golgi network vesicle protein 23 homolog C)	SID134270852	0.88	1.67	no change	no change
55	TVP23C (trans-golgi network vesicle protein 23 homolog C)	SID135614954	0.96	1.15	no change	no change
56	TVP23C (trans-golgi network vesicle protein 23 homolog C)	SID135614955	0.2	1.85	no change	no change
57	TMPRSS11F (transmembrane serine protease 11F)	SID134307969	0.65 (active)	2.98	no change	caspase activation
58	TMPRSS11F (transmembrane serine protease 11F)	SID134307970	1.08	1.15	no change	no change
59	TMPRSS11F (transmembrane serine protease 11F)	SID134307971	0.2 (active)	3.52	reduced viability	caspase activation
60	TMPRSS11F (transmembrane serine protease 11F)	SID134307972	0.77	0.78	no change	no change
61	FBP1 (fructose-bisphosphatase 1)	SID134244053	0.96	1.08	no change	no change
62	FBP1 (fructose-bisphosphatase 1)	SID134244054	1.04	2	no change	no change
63	FBP1 (fructose-bisphosphatase 1)	SID134244055	0.67	2.5	no change	no change
64	FBP1 (fructose-bisphosphatase 1)	SID134244056	1.02	1.14	no change	no change
65	TDRP (testis development related protein)	SID134277413	0.6	1.68	no change	no change
66	TDRP (testis development related protein)	SID134277414	0.8	1.76	no change	no change
67	TDRP (testis development related protein)	SID134277415	0.77 (active)	4.2	no change	caspase activation
68	TDRP (testis development related protein)	SID134277416	0.4 (active)	4.66	reduced viability	caspase activation
69	VPS52 (VPS52 subunit of GARP complex)	SID134254221	0.92	1.29	no change	no change
70	VPS52 (VPS52 subunit of GARP complex)	SID134254222	0.93	1.77	no change	no change
71	VPS52 (VPS52 subunit of GARP complex)	SID134254223	0.77 (active)	3	no change	caspase activation
72	VPS52 (VPS52 subunit of GARP complex)	SID134254224	0.38 (active)	2.5	reduced viability	no change
73	RLN3 (relaxin 3)	SID134250833	0.72 (active)	3.06	no change	caspase activation
74	RLN3 (relaxin 3)	SID134250834	0.72 (active)	3.23	no change	caspase activation
75	RLN3 (relaxin 3)	SID134250835	0.55 (active)	4.7	reduced viability	caspase activation
76	RLN3 (relaxin 3)	SID134250836	0.68 (active)	4.42	no change	caspase activation
